Drawing on publication PMC11550803, this text covers binding for one substance.

Sequences of proteins named here, by UniProt entry; tags and fusion partners are left off.
UniProt P61289: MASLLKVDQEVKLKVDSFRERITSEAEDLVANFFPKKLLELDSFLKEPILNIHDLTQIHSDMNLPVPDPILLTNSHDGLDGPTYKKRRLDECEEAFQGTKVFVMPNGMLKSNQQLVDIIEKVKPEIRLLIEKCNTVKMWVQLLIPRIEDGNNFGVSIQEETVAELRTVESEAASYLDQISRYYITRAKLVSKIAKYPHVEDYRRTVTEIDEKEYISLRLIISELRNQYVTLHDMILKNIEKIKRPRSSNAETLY

The test concerns the target T1, FDPS (farnesyl diphosphate synthase), as used in the co-IP (UniProt P14324).
T1 sequence: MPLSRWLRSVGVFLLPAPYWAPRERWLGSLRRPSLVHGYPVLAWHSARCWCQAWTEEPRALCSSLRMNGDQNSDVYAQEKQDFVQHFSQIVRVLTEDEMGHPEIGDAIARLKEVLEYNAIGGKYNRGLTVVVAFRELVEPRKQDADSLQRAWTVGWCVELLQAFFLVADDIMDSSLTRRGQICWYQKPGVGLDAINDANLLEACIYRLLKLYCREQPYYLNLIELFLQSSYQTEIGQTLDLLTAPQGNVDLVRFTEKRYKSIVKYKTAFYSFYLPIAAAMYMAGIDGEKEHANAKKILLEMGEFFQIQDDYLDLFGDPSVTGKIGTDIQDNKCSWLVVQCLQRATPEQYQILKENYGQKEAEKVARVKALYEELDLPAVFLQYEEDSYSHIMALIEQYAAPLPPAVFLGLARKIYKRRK
Kind of test: co-IP; BeaverBeads Protein A magnetic beads with 1 µg antibody; cell lysates incubated overnight at 4 °C; washed three times with Triton X-100 buffer; immunoblot. In general terms: In western blotting, separated proteins are transferred to a membrane and probed.

Results are given in words; binding and its absence hold for the method and conditions named. In cells and extracts the contact can be indirect. Some binding calls cover weakened binding; strength is not graded here.

For the substance “PSME3, as used in the co-IP (from UniProt P61289 1-254)”, the binding result is recorded as “binds”.
